No constants are given. Whether binding was seen depends on the method and setting. In cells and extracts the contact can be indirect. Some binding calls cover weakened binding; strength is not graded here. For some assays here: Tags and fused reporters may be left off the sequences shown. Each block holds one molecule with its values, some of them ahead of it.
How the values were obtained:
[1] = molecular target: T1, Tandem Affinity Purification (TAP) tagged Snt2 (S. cerevisiae) (UniProt P53127); test: co-IP; TAP tagged Pep5 or Snt2 immunoprecipitated from 3 liter cultures of strains carrying FLAG-tagged Rad53; Rad53 detected with FLAG antibodies
T1 sequence: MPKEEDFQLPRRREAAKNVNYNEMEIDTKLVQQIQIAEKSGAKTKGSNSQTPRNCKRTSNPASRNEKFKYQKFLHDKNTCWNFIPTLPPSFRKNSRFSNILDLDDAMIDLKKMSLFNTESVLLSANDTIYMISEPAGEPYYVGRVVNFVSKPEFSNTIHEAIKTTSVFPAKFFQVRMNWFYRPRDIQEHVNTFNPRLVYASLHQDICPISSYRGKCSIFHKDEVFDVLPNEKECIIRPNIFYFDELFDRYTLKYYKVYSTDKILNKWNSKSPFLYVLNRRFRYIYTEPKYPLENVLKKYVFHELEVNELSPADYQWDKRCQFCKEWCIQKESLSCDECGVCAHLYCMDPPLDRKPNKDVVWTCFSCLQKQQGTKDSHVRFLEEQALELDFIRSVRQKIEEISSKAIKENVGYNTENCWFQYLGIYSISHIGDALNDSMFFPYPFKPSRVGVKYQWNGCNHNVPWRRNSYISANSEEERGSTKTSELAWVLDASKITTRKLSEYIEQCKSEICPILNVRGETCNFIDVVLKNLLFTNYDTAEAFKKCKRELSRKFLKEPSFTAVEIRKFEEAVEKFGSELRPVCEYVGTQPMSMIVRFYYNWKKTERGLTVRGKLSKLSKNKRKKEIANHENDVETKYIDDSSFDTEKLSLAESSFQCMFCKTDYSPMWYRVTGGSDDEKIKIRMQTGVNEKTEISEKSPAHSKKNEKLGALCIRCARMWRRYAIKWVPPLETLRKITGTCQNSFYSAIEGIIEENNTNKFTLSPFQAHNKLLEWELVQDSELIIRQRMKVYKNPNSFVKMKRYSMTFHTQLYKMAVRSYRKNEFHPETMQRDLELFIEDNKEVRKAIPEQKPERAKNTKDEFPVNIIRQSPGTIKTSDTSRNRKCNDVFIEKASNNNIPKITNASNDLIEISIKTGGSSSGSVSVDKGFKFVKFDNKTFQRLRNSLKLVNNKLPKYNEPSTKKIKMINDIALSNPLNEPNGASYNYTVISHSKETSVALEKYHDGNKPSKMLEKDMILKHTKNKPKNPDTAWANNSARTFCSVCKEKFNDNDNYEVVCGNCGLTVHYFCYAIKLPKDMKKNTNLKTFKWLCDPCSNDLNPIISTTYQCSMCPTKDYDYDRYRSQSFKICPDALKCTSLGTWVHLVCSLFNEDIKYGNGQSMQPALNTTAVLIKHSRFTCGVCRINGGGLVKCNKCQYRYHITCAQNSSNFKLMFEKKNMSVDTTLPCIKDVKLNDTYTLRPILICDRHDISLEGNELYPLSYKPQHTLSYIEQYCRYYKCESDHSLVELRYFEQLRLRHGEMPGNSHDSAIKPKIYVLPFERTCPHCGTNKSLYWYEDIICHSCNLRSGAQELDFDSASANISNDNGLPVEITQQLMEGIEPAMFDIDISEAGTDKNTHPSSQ

The chains behind the UniProt entries cited, without tags or fusion partners.
UniProt P15731: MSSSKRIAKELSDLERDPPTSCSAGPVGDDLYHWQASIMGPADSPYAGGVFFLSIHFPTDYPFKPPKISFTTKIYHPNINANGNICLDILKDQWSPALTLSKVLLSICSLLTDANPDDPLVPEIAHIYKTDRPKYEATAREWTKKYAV
UniProt P12868: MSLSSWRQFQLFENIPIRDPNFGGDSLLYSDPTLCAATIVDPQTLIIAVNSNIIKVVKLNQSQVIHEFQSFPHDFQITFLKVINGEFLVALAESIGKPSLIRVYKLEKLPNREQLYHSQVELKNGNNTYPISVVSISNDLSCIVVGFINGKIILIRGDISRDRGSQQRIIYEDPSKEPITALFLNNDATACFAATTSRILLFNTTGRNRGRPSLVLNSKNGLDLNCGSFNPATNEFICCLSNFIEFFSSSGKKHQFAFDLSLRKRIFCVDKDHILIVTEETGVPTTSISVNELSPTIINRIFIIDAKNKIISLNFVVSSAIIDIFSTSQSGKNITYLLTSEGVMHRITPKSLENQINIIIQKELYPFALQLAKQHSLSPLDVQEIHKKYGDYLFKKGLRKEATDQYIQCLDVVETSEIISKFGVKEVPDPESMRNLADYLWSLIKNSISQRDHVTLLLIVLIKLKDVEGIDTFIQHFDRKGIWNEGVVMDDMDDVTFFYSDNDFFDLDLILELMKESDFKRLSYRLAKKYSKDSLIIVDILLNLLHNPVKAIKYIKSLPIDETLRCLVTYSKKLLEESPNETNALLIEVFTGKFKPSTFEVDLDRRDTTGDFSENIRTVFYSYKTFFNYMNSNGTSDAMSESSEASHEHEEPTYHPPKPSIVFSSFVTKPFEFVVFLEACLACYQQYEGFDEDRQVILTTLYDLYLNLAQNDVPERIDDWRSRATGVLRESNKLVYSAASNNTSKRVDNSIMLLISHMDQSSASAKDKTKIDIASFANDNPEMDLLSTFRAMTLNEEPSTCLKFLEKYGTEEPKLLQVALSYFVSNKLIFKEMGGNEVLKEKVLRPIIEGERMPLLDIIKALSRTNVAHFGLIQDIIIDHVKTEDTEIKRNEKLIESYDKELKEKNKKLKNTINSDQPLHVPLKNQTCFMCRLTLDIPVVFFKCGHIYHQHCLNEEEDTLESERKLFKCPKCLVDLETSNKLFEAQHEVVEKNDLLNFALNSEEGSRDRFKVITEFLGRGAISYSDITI
UniProt P22216: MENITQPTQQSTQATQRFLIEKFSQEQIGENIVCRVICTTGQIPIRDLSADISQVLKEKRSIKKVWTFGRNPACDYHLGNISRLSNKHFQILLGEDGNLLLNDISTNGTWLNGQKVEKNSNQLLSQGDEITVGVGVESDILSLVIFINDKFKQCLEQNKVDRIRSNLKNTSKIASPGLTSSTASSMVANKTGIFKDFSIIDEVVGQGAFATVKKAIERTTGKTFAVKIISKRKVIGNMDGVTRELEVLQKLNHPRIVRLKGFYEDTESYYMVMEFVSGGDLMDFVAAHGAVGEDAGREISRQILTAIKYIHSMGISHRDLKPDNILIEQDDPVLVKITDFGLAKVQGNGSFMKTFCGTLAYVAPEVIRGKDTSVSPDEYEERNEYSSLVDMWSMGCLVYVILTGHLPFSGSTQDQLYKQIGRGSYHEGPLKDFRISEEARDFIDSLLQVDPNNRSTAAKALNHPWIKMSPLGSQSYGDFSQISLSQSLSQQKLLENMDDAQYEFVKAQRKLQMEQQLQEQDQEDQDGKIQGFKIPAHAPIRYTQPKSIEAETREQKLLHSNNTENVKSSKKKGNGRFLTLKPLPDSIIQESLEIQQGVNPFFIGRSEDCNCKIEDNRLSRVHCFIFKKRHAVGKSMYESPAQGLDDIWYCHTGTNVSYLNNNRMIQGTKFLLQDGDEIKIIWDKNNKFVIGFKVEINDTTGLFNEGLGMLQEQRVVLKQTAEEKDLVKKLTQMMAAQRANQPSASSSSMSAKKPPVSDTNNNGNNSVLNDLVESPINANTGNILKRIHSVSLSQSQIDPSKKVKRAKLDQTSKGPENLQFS

[2] = molecular target: T2, MYC tagged Hel1 (S. cerevisiae) (UniProt P36113); test: co-IP; MYC tagged Hel1 or Hel2 immunoprecipitated with MYC antibody beads from 3 liter cultures of strains carrying FLAG-tagged Rad53; Western blot
T2 sequence: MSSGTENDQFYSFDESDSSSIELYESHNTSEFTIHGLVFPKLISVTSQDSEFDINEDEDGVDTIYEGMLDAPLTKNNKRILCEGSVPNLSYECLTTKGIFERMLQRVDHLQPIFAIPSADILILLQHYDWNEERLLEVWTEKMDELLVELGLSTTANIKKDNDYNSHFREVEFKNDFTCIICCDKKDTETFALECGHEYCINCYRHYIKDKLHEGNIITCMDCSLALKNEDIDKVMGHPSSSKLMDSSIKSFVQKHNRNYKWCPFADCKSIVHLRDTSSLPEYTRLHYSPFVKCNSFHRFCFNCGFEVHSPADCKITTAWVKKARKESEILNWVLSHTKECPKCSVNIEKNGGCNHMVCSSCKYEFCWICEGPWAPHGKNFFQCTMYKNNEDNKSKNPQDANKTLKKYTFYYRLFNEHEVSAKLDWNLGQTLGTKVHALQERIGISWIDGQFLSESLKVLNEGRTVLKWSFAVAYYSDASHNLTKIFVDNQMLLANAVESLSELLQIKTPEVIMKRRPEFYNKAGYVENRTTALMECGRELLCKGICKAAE

[3] = molecular target: T3, MYC tagged Hel2 (S. cerevisiae) (UniProt Q05580); test: as above
T3 sequence: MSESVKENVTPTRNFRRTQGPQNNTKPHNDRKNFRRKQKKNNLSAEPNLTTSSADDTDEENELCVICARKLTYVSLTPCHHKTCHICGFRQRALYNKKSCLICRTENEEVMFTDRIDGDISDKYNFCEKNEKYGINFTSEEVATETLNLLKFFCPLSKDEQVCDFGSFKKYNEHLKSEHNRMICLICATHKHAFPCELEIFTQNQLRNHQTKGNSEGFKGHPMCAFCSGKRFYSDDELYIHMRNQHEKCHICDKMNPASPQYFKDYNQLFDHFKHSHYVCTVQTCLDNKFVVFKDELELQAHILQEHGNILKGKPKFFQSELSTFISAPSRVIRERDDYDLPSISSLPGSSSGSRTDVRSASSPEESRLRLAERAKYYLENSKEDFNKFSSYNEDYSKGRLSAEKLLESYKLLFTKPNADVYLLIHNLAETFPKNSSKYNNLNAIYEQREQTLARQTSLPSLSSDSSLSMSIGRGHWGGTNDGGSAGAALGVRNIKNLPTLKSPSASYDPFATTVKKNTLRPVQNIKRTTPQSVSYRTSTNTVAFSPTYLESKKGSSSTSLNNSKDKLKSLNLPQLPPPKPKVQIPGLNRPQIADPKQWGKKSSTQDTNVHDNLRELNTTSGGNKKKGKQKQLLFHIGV

[4] = molecular target: MYC13-tagged Ubc4 (S. cerevisiae) (UniProt P15731); test: co-IP; Ubc4-MYC immunoprecipitated with anti-MYC EZ View beads (Sigma) from whole cell extracts of 0.5 liter cultures; HA-tagged E3 ligases detected with HA.11 antibodies
[5] = molecular target: T4, HIS6-HA-Protein A tagged Hel1 (YKR017C) (S. cerevisiae) (UniProt P36113); test: co-IP; reciprocal immunoprecipitation of the Ubc4-MYC / HA-tagged E3 ligase pairs; data not shown
T4 sequence: T2 sequence

[6] = molecular target: T5, HIS6-HA-Protein A tagged Hel2 (YDR266C) (S. cerevisiae) (UniProt Q05580); test: as above
T5 sequence: T3 sequence

[7] = molecular target: T6, HIS6-HA-Protein A tagged Snt2 (S. cerevisiae) (UniProt P53127); test: as above
T6 sequence: T1 sequence

[8] = molecular target: HIS6-HA-Protein A tagged Pep5 (S. cerevisiae) (UniProt P12868); test: as above
[9] = molecular target: T4, HIS6-HA-Protein A tagged Hel1 (YKR017C) (S. cerevisiae); test: co-IP; HA-tagged E3 ligases immunoprecipitated with magnetic beads conjugated to HA.11 antibodies from 1 liter cultures; endogenous histones H3 and H4 detected with polyclonal antibodies
[10] = molecular target: T5, HIS6-HA-Protein A tagged Hel2 (YDR266C) (S. cerevisiae); test: as above
[11] = molecular target: T6, HIS6-HA-Protein A tagged Snt2 (S. cerevisiae); test: as above
[12] = molecular target: HIS6-HA-Protein A tagged Pep5 (S. cerevisiae) (UniProt P12868); test: as above

binding [4]: binds
Molecule: HIS6-HA-Protein A tagged Pep5 (from UniProt P12868 1-1029) (enzyme)

binding [5]: binds | binding [6]: binds | binding [7]: binds | binding [8]: binds
Molecule: MYC13-tagged Ubc4 (from UniProt P15731 1-148) (enzyme)

binding [4]: binds
B1: HIS6-HA-Protein A tagged Snt2 (enzyme, UniProt P53127 1-1403)
chain: T1 sequence

The remaining lines, values behind:

Molecule: FLAG-tagged Rad53 (from UniProt P22216 1-821) (enzyme)
binding [1]: binds | binding [2]: binds | binding [3]: binds

Molecule: histone H3 (endogenous) (from UniProt P61830 1-136)
binding [9]: binds | binding [10]: binds | binding [11]: binds | binding [12]: binds

B2: HIS6-HA-Protein A tagged Hel1 (YKR017C) (enzyme, UniProt P36113 1-551)
chain: T2 sequence
binding [4]: binds
